These are yes or no findings as the source states them, for the method shown. Some entries that bind do so weakly or less than the wild type.
The binders below were run against mouse EphA4 ectodomain fused to Fc (mouse) (UniProt Q03137) (assay: phage ELISA on immobilized EphA4 Fc; clone 3-13 marked 'Not from panning' in Table 5).

The chains behind the UniProt entries cited, without tags or fusion partners. Where a name states a change or a piece, a line headed by the entry shows the natural chain unless it says otherwise.
UniProt Q03137: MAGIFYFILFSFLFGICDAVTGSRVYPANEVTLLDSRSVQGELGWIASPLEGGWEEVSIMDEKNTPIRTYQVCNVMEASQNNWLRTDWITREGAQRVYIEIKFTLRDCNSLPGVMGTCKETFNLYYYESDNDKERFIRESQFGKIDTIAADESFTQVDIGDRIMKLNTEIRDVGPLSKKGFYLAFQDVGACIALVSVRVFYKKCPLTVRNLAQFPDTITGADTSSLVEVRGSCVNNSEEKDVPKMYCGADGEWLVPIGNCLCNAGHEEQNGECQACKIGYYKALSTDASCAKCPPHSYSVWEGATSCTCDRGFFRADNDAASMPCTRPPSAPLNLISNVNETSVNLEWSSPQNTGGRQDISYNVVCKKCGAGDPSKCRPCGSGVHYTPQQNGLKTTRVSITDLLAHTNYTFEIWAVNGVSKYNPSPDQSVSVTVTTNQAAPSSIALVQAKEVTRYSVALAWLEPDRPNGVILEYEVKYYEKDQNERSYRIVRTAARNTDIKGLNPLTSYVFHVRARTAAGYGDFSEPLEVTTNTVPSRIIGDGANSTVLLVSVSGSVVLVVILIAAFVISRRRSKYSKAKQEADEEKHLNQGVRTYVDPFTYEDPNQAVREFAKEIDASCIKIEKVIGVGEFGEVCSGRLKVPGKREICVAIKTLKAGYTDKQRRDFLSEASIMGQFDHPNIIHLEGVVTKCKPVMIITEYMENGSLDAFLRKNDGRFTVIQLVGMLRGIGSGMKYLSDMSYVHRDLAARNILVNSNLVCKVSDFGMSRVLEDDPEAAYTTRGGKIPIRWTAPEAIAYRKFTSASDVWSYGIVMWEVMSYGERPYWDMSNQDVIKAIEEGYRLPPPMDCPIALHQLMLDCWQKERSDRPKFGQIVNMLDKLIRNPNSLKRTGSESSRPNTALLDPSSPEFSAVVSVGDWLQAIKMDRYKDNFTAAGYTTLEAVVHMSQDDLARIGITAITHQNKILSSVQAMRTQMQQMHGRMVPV

Binder	binding
APYCVYQGLWEC [phage clone 3-13 …]	binds

Each binder was assayed against mouse EphA4 ectodomain fused to Fc (mouse) (UniProt Q03137) (assay: phage ELISA on immobilized EphA4 Fc; clone 3-14 marked 'Not from panning' in Table 5).

Binder	binding
APYCVYGGLWTC [phage clone 3-14 …]	binds

Each binder was assayed against mouse EphA4 ectodomain fused to Fc (mouse) (UniProt Q03137) (assay: phage ELISA on immobilized EphA4 Fc; clone 3-19 marked 'Not from panning' in Table 5).

Binder	binding
GPYCVYKGNWWC [phage clone 3-19 …]	binds

The binders below were run against mouse EphA4 ectodomain fused to Fc (mouse) (UniProt Q03137) (assay: phage ELISA on immobilized EphA4 Fc with KYL as competitor).

Binder	binding
KYLPYWPVLSSL [KYL peptide …]	binds

Each binder was assayed against mouse EphA4 ectodomain fused to Fc (mouse) (UniProt Q03137) (assay: phage ELISA on immobilized EphA4 Fc; grade = KYL concentration needed to inhibit phage-EphA4 binding).

Binder	binding
APYCVYSGVWNC [phage clone 3-9 …]	binds
APYCVYDGTWIC [phage clone 3-2 …]	binds
QALCVYRGSWSC [phage clone 4-9 …]	binds
DAYCVYRGSWSC [phage clone 4-3 …]	binds
APHCVFRGSWSC [phage clone 1-7 …]	binds
APYCVWRGSWSC [phage clone 1-1 …]	binds
APYCVYSGRWEC [phage clone 3-11 …]	binds
APYCVYRGVWEC [phage clone 3-12 …]	binds
GPYCVYKGNWWC [phage clone 3-19 …]	binds
SALCVYRGSWSC [phage clone 4-8 …]	binds
YPMCVYRGSWSC [phage clone 4-12 …]	binds
APYCVYQGYWKC [phage clone 3-16 …]	binds
APVCVWRGSWSC [phage clone 1-2 …]	binds
APLCVYRGSWSC [phage clone 1-4 …]	binds
APFCLYTGDWVC [phage clone 2-2 …]	binds
FPVCVYRGSWSC [phage clone 4-10 …]	binds
EPYCVYRGSWSC [phage clone 4-2 …]	binds
APYCVYGGTWRC [phage clone 3-3 …]	binds

Binder	binding
APYCVYSGTWHC [phage clone 3-4 …]	binds
APWCVFRGSWSC [phage clone 1-6 …]	binds
APICVYRGSWSC [phage clone 1-5 …]	binds
APYCVYNGRWDC [phage clone 3-17 …]	binds
APYCVYDGSWNC [phage clone 3-6 …]	binds
LPLCVYRGSWSC [phage clone 4-6 …]	binds
APYCVYGGLWTC [phage clone 3-14 …]	binds
APLCVWRGSWSC [phage clone 1-3 …]	binds
APFCSWAGWWTC [phage clone 2-3 …]	binds
APYCVYNGTWNC [phage clone 3-5 …]	binds
APYCVYSGWWKC [phage clone 3-10 …]	binds
APYCVYTGEWLC [phage clone 3-1 …]	binds
GPLCVYRGSWSC [phage clone 4-7 …]	binds
APYCSYYGQWMC [phage clone 2-1 …]	binds
LPVCVYRGSWSC [phage clone 4-11 …]	binds
AAFCVYRGSWSC [phage clone 4-4 …]	binds
APLCVYRGSWSC [phage clone 4-5 …]	binds

The binders below were run against mouse EphA4 ectodomain fused to Fc (mouse) (UniProt Q03137) (assay: phage ELISA on immobilized EphA4 Fc; clone 3-18 marked 'Not from panning' in Table 5).

Binder	binding
APYCVYRGHWGC [phage clone 3-18 …]	binds

Each binder was assayed against mouse EphA4 ectodomain fused to Fc (mouse) (UniProt Q03137) (assay: phage ELISA on immobilized EphA4 Fc; clone 3-8 marked 'Not from panning' in Table 5).

Binder	binding
APYCVYEGLWNC [phage clone 3-8 …]	binds

What follows are binders tested against mouse EphA4 ectodomain fused to Fc (mouse) (UniProt Q03137) (assay: phage ELISA on immobilized EphA4 Fc; clone 3-7 marked 'Not from panning' in Table 5).

Binder	binding
APYCVYKGSWNC [phage clone 3-7 …]	binds

What follows are binders tested against mouse EphA4 ectodomain fused to Fc (mouse) (UniProt Q03137) (assay: phage ELISA on immobilized EphA4 Fc; clone 3-15 marked 'Not from panning' in Table 5).

Binder	binding
APYCVYAGKWSC [phage clone 3-15 …]	binds
